The values that follow come from doi:10.1101/2022.09.13.507805.

Chains of the proteins cited; added tags and fusions are not shown.
UniProt Q96704, whole entry: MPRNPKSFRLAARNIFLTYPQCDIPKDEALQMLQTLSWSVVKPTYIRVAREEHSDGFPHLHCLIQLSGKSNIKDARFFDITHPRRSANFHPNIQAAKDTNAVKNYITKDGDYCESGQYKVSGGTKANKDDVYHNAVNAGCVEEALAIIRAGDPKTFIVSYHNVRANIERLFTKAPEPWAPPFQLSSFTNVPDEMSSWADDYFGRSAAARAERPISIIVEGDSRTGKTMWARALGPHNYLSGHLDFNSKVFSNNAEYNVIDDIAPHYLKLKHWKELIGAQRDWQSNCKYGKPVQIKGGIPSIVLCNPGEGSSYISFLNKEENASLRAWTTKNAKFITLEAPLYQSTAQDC
UniProt Q8RXD4, whole entry: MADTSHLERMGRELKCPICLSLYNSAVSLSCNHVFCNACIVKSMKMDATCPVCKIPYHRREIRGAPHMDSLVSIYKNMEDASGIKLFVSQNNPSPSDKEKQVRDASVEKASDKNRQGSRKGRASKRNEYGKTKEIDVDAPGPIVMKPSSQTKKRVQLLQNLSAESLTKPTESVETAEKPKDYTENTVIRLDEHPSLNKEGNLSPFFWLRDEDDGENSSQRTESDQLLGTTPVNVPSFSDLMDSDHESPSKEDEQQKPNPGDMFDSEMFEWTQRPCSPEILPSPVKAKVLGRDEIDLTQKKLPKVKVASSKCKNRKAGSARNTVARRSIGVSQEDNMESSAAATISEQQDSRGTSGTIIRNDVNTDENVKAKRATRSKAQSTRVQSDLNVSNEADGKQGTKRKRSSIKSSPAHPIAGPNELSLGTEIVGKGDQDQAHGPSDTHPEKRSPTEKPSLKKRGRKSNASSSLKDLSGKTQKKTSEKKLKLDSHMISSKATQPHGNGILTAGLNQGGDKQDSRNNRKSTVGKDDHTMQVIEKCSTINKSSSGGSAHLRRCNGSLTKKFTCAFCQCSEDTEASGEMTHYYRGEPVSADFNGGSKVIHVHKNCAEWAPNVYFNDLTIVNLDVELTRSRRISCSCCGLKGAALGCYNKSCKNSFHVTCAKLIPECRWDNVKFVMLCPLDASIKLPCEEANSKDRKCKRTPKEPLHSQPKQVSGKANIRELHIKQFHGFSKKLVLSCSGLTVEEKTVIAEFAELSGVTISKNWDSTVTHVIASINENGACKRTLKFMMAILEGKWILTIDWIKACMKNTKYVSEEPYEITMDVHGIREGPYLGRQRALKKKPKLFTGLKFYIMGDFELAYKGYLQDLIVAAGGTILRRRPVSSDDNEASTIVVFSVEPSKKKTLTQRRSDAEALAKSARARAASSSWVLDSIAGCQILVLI
UniProt Q9M7Q7, whole entry: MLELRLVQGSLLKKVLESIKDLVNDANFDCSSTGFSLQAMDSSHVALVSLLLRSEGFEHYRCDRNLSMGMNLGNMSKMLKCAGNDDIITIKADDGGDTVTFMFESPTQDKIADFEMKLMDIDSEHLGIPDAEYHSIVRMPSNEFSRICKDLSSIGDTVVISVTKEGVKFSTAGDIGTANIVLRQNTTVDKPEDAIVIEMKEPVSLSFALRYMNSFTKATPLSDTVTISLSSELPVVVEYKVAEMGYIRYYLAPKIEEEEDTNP

Experiment in all cases: two-hybrid
The target of experiment [1] is T1, RAD51 (AT5G20850), yeast two-hybrid fusion (Arabidopsis thaliana) (UniProt P94102).
T1 sequence: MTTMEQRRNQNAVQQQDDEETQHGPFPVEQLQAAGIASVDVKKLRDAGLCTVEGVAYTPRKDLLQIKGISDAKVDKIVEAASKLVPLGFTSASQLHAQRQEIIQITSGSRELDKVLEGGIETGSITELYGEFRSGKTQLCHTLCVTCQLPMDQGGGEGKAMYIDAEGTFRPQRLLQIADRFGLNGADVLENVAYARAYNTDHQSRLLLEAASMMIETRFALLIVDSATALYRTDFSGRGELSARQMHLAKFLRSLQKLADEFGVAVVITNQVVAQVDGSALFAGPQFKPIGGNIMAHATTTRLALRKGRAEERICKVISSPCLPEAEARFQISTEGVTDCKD

The target in experiment [2] is T2, RPA1A (replication protein A 1A, AT2G06510), yeast two-hybrid fusion (Arabidopsis thaliana) (UniProt Q9SKI4).
T2 sequence: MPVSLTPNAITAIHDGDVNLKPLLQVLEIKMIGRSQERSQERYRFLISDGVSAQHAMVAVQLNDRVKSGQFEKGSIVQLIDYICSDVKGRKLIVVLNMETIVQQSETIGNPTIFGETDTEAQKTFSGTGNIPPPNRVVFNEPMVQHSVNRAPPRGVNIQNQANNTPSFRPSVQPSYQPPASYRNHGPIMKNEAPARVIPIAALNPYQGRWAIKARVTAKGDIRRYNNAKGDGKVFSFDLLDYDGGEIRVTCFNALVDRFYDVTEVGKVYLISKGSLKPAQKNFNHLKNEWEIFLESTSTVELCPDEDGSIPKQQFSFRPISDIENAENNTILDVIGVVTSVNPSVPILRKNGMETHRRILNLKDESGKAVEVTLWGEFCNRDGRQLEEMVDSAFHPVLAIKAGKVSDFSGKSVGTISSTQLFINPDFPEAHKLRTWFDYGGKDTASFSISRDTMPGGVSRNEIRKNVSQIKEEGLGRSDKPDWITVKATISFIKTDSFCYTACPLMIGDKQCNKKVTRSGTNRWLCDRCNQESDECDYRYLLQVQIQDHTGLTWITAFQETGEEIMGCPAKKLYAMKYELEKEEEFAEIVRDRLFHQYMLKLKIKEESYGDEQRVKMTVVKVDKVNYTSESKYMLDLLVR

Experiment [3] deals with Rep (encoded by CaLCuV), yeast two-hybrid bait (Cabbage Leaf Curl Virus (CaLCuV)) (UniProt Q96704).

These are yes or no findings as the source states them, for the method shown. Some results given as binding are weak or reduced against the parent protein; the word gives no strength. Tags and fused reporters may be left off the sequences shown.

“BRCA1 (AT4G21070), yeast two-hybrid fusion (from UniProt Q8RXD4 1-941)”: the binding entry in experiment [1] is given as “binds”; in experiment [2] it was “no binding”.
As to “PCNA1 (AT1G07370), yeast two-hybrid fusion (from UniProt Q9M7Q7 1-263)”, in experiment [3], the binding entry is “binds”.

B1: RAD51 (AT5G20850), yeast two-hybrid fusion (protein, UniProt P94102 1-342)
chain: MTTMEQRRNQNAVQQQDDEETQHGPFPVEQLQAAGIASVDVKKLRDAGLCTVEGVAYTPRKDLLQIKGISDAKVDKIVEAASKLVPLGFTSASQLHAQRQEIIQITSGSRELDKVLEGGIETGSITELYGEFRSGKTQLCHTLCVTCQLPMDQGGGEGKAMYIDAEGTFRPQRLLQIADRFGLNGADVLENVAYARAYNTDHQSRLLLEAASMMIETRFALLIVDSATALYRTDFSGRGELSARQMHLAKFLRSLQKLADEFGVAVVITNQVVAQVDGSALFAGPQFKPIGGNIMAHATTTRLALRKGRAEERICKVISSPCLPEAEARFQISTEGVTDCKD
As to B1, the binding entry in experiment [3] is “binds”.

B2: B1 type cyclin dependent protein kinase CYCB1;1 (AT4G37490), yeast two-hybrid fusion (protein, UniProt P30183 1-428)
chain: MMTSRSIVPQQSTDDVVVVDGKNVAKGRNRQVLGDIGNVVRGNYPKNNEPEKINHRPRTRSQNPTLLVEDNLKKPVVKRNAVPKPKKVAGKPKVVDVIEISSDSDEELGLVAAREKKATKKKATTYTSVLTARSKAACGLEKKQKEKIVDIDSADVENDLAAVEYVEDIYSFYKSVESEWRPRDYMASQPDINEKMRLILVEWLIDVHVRFELNPETFYLTVNILDRFLSVKPVPRKELQLVGLSALLMSAKYEEIWPPQVEDLVDIADHAYSHKQILVMEKTILSTLEWYLTVPTHYVFLARFIKASIADEKMENMVHYLAELGVMHYDTMIMFSPSMVAASAIYAARSSLRQVPIWTSTLKHHTGYSETQLMDCAKLLAYQQWKQQEEGSESSTKGALRKKYSKDERFAVALIPPAKALLTGTESA
On to B2, for which the results for the binding entry in experiment [1] and in experiment [2] were “binds” and “no binding”, respectively.

B3: RPA1A (replication protein A 1A, AT2G06510), yeast two-hybrid fusion (protein, UniProt Q9SKI4 1-640)
chain: MPVSLTPNAITAIHDGDVNLKPLLQVLEIKMIGRSQERSQERYRFLISDGVSAQHAMVAVQLNDRVKSGQFEKGSIVQLIDYICSDVKGRKLIVVLNMETIVQQSETIGNPTIFGETDTEAQKTFSGTGNIPPPNRVVFNEPMVQHSVNRAPPRGVNIQNQANNTPSFRPSVQPSYQPPASYRNHGPIMKNEAPARVIPIAALNPYQGRWAIKARVTAKGDIRRYNNAKGDGKVFSFDLLDYDGGEIRVTCFNALVDRFYDVTEVGKVYLISKGSLKPAQKNFNHLKNEWEIFLESTSTVELCPDEDGSIPKQQFSFRPISDIENAENNTILDVIGVVTSVNPSVPILRKNGMETHRRILNLKDESGKAVEVTLWGEFCNRDGRQLEEMVDSAFHPVLAIKAGKVSDFSGKSVGTISSTQLFINPDFPEAHKLRTWFDYGGKDTASFSISRDTMPGGVSRNEIRKNVSQIKEEGLGRSDKPDWITVKATISFIKTDSFCYTACPLMIGDKQCNKKVTRSGTNRWLCDRCNQESDECDYRYLLQVQIQDHTGLTWITAFQETGEEIMGCPAKKLYAMKYELEKEEEFAEIVRDRLFHQYMLKLKIKEESYGDEQRVKMTVVKVDKVNYTSESKYMLDLLVR
For B3, the binding result in experiment [3] is reported as “binds”.
